Test results from the supplement of paper PMC6411743.
± gives the standard deviation of the averaged measurements. This is one part of the list.

Protein sequences, listed by entry. Tags and fused reporters are not part of them. Lines headed by an entry give the natural chain unless they say otherwise; changes in a name come on top.
UniProt P67775, whole entry: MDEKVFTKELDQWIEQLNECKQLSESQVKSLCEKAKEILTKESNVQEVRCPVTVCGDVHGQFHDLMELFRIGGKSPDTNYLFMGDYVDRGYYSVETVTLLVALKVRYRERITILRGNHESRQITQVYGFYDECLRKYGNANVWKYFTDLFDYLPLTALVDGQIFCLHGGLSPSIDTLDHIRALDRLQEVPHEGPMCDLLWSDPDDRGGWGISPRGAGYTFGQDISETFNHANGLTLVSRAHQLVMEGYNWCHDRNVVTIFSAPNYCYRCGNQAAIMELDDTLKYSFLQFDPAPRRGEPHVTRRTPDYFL
UniProt P50748: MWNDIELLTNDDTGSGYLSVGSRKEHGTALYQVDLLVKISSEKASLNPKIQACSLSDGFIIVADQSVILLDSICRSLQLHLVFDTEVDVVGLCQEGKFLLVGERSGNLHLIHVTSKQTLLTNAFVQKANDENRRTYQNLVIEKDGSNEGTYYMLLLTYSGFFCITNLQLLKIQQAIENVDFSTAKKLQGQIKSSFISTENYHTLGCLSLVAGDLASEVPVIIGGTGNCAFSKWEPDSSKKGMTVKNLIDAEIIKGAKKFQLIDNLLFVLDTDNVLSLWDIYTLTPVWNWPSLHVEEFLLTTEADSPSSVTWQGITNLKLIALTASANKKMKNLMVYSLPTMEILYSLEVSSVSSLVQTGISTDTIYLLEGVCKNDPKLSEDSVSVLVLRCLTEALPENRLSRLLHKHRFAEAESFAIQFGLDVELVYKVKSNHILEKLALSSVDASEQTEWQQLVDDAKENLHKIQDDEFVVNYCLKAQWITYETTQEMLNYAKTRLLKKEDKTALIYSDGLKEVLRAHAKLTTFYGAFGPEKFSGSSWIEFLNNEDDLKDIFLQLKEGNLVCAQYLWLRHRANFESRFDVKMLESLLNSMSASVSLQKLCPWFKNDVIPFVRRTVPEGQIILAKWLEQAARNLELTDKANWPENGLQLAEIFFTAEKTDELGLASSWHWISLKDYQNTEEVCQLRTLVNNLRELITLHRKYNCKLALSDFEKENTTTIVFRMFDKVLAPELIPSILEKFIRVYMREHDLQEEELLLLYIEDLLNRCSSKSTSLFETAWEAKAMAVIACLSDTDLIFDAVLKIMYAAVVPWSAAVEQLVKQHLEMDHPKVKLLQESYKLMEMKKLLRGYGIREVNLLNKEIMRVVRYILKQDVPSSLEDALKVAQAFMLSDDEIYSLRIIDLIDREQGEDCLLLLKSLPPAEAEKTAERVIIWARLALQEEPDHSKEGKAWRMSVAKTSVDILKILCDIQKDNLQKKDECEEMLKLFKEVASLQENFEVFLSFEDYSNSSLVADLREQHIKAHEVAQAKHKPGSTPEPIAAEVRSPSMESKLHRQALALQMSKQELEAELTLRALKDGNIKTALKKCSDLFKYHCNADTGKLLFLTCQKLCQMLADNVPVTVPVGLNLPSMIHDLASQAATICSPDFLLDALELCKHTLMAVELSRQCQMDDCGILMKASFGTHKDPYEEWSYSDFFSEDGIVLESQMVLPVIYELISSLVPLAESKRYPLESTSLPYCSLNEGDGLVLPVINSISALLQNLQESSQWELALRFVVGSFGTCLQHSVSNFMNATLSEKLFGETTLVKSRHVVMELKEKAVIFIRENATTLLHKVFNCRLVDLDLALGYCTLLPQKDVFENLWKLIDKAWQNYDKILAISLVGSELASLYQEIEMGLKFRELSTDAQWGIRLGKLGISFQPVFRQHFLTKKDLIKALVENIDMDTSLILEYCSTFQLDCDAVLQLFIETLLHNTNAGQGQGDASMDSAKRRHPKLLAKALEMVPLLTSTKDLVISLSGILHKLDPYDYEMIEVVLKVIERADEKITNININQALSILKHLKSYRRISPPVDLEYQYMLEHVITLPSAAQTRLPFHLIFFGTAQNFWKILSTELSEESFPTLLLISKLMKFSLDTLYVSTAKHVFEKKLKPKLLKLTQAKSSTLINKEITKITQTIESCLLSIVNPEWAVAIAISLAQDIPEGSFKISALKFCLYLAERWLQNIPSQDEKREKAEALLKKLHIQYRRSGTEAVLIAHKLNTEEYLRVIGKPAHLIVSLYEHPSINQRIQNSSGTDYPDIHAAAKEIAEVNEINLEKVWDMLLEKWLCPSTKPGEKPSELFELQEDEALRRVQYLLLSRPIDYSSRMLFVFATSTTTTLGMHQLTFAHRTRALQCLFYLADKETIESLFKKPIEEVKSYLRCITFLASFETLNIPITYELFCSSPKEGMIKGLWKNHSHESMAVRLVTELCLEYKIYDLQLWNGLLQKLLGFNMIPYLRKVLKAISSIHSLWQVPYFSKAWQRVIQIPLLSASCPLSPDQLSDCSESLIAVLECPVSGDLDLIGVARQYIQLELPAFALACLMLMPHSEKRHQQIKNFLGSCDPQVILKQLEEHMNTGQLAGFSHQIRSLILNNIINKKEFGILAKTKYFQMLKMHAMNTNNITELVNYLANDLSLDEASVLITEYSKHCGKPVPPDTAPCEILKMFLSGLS
UniProt P61586, whole entry: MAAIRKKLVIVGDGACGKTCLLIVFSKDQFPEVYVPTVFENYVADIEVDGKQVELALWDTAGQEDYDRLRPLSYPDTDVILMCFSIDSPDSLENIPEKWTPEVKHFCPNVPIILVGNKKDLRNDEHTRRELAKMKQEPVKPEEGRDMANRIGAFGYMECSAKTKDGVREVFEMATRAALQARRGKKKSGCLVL
UniProt P55010, whole entry: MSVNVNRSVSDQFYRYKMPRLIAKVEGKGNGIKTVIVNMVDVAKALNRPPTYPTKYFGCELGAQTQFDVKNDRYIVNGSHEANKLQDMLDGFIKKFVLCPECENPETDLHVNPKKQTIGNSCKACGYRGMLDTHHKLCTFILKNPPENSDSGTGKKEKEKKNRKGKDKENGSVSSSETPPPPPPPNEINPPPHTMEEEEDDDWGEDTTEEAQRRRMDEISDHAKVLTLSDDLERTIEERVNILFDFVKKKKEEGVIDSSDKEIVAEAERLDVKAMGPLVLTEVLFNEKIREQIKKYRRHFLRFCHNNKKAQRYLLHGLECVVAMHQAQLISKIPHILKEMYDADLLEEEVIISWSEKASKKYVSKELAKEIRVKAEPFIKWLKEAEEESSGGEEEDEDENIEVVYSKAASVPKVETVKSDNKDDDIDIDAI
UniProt P51571: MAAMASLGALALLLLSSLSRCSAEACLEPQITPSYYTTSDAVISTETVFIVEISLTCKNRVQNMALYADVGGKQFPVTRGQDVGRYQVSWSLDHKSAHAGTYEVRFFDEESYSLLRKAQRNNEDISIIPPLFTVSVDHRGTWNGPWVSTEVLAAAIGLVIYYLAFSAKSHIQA

Compound: Nc1nc2c(ncn2[C@@H]2O[C@H](COP(=O)(O)OP(=O)(O)OP(=O)(O)O)[C@@H](O)[C@H]2O)c(=O)[nH]1 [guanosine triphosphate]
Experiment: NP40-soluble protein abundance relative to vehicle (solubility fold change) (ratio); higher = more soluble protein in presence of GTP
Method: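 Solubility proteome profiling in Jurkat crude lysate. Lysate was treated with Mg-GTP (0.1-10 mM) for 10 min at room temperature and 3 min at 37 °C, then solubilised with 0.8% NP40 and benzonase, followed by ultracentrifugation. Proteins were quantified by TMT10 LC-MS/MS; the value is the NP40-soluble abundance relative to the NP40-processed vehicle, from 3 independent experiments.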

Row | Target | NP40-soluble protein abundance (concentration: 0.1mM) | NP40-soluble protein abundance (concentration: 0.5mM) | NP40-soluble protein abundance (concentration: 1mM) | NP40-soluble protein abundance (concentration: 2mM) | NP40-soluble protein abundance (concentration: 4mM) | NP40-soluble protein abundance (concentration: 6mM) | NP40-soluble protein abundance (concentration: 8mM) | NP40-soluble protein abundance (concentration: 10mM)
1 | PPP2CA (UniProt P67775) | 0.989 ± 0.017 | 0.988 ± 0.0016 | 0.99 ± 0.031 | 0.94 ± 0.012 | 0.951 ± 0.026 | 0.951 ± 0.031 | 0.9571 ± 0.0073 | 0.935 ± 0.02
2 | KNTC1 (UniProt P50748) | 1.1 ± 0.1 | 1.13 ± 0.11 | 1.05 ± 0.049 | 1.1 ± 0.06 | 1.08 ± 0.07 | 1.04 ± 0.047 | 1.02 ± 0.047 | 0.971 ± 0.083
3 | RHOA (UniProt P61586) | 0.912 ± 0.15 | 0.965 ± 0.18 | 1.01 ± 0.2 | 0.94 ± 0.28 | 0.911 ± 0.21 | 0.959 ± 0.27 | 0.967 ± 0.12 | 0.945 ± 0.19
4 | EIF5 (UniProt P55010) | 0.948 ± 0.053 | 0.97 ± 0.054 | 0.97 ± 0.068 | 0.916 ± 0.089 | 0.898 ± 0.069 | 0.921 ± 0.085 | 0.94 ± 0.064 | 0.922 ± 0.07
5 | SSR4 (UniProt P51571) | 0.98 ± 0.087 | 0.994 ± 0.056 | 0.95 ± 0.064 | 0.911 ± 0.1 | 0.888 ± 0.075 | 0.929 ± 0.091 | 0.936 ± 0.046 | 0.901 ± 0.075
